Test results: ChEMBL document CHEMBL5674883, “The Heterochromatin Landscape in Migrating Cells and the Importance of H3K27me3 for Associated Transcriptome Alterations” (Cells, 2018)
Further values from the same series stand in other lists.

Amino acid sequences for entries named in this document (tags omitted).
UniProt Q61188, whole entry: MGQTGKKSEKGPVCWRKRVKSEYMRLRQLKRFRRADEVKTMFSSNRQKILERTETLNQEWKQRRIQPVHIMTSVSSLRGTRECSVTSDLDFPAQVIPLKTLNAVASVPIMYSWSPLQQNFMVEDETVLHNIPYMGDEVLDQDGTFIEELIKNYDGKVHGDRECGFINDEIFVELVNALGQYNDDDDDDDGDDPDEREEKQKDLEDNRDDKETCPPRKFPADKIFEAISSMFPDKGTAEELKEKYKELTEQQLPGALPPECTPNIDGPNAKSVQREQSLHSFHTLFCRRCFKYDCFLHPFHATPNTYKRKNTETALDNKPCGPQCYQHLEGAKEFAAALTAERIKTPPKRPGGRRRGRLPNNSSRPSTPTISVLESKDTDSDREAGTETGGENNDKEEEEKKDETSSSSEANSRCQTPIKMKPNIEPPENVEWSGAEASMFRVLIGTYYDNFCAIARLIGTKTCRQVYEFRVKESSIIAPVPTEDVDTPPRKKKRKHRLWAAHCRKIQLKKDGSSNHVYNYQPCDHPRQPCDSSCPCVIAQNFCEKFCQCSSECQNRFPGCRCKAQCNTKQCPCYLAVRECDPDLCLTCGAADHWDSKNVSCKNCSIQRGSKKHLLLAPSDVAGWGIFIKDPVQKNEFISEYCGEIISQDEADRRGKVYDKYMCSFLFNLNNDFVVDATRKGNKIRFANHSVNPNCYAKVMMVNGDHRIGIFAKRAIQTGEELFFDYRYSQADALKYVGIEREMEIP

Tests used:
Format in all cases: cell-based
[1] = molecular target: T1, RNA polymerase II (Mus musculus) (UniProt P08775+Q8CFI7+P97760+A0A3Q4L2S8+Q80UW8+P61219+P62488+Q923G2+P60898+O08740+Q63871+P62876); test: Inhibition of RNA polymerase II in mouse B16-F1 migrating cells assessed as fold change in Mcrip1-RNA stability at 0.1 mM measured by ChIP-seq analysis relative to control cells
[2] = molecular target: T1, RNA polymerase II (Mus musculus); test: Inhibition of RNA polymerase II in mouse B16-F1 migrating cells assessed as fold change in Etf1-RNA stability at 0.1 mM measured by ChIP-seq analysis relative to control cells
[3] = molecular target: T1, RNA polymerase II (Mus musculus); test: Inhibition of RNA polymerase II in mouse B16-F1 migrating cells assessed as fold change in Fam60a-RNA stability at 0.1 mM measured by ChIP-seq analysis relative to control cells
[4] = molecular target: T1, RNA polymerase II (Mus musculus); test: Inhibition of RNA polymerase II in mouse B16-F1 migrating cells assessed as fold change in Pcdh7-RNA stability at 0.1 mM measured by ChIP-seq analysis relative to control cells
[5] = molecular target: T1, RNA polymerase II (Mus musculus); test: Inhibition of RNA polymerase II in mouse B16-F1 migrating cells assessed as fold change in Gadd45gip1-RNA stability at 0.1 mM measured by ChIP-seq analysis relative to control cells
[6] = molecular target: T1, RNA polymerase II (Mus musculus); test: Inhibition of RNA polymerase II in mouse B16-F1 migrating cells assessed as fold change in Ndufa11-RNA stability at 0.1 mM measured by ChIP-seq analysis relative to control cells
[7] = molecular target: T1, RNA polymerase II (Mus musculus); test: Inhibition of RNA polymerase II in mouse B16-F1 migrating cells assessed as fold change in Rabgap1-RNA stability at 0.1 mM measured by ChIP-seq analysis relative to control cells
[8] = molecular target: T1, RNA polymerase II (Mus musculus); test: Inhibition of RNA polymerase II in mouse B16-F1 migrating cells assessed as fold change in Tmf1-RNA stability at 0.1 mM measured by ChIP-seq analysis relative to control cells
[9] = molecular target: T1, RNA polymerase II (Mus musculus); test: Inhibition of RNA polymerase II in mouse B16-F1 migrating cells assessed as fold change in Pgls-RNA stability at 0.1 mM measured by ChIP-seq analysis relative to control cells
[10] = molecular target: T1, RNA polymerase II (Mus musculus); test: Inhibition of RNA polymerase II in mouse B16-F1 migrating cells assessed as fold change in Rplp2-RNA stability at 0.1 mM measured by ChIP-seq analysis relative to control cells
[11] = molecular target: T1, RNA polymerase II (Mus musculus); test: Inhibition of RNA polymerase II in mouse B16-F1 migrating cells assessed as fold change in Gk-RNA stability at 0.1 mM measured by ChIP-seq analysis relative to control cells
[12] = molecular target: T1, RNA polymerase II (Mus musculus); test: Inhibition of RNA polymerase II in mouse B16-F1 migrating cells assessed as fold change in Dmac2-RNA stability at 0.1 mM measured by ChIP-seq analysis relative to control cells
[13] = molecular target: T1, RNA polymerase II (Mus musculus); test: Inhibition of RNA polymerase II in mouse B16-F1 migrating cells assessed as fold change in Ugcg-RNA stability at 0.1 mM measured by ChIP-seq analysis relative to control cells
[14] = molecular target: T1, RNA polymerase II (Mus musculus); test: Inhibition of RNA polymerase II in mouse B16-F1 migrating cells assessed as fold change in Ikzf5-RNA stability at 0.1 mM measured by ChIP-seq analysis relative to control cells
[15] = molecular target: T1, RNA polymerase II (Mus musculus); test: Inhibition of RNA polymerase II in mouse B16-F1 migrating cells assessed as fold change in Adk-RNA stability at 0.1 mM measured by ChIP-seq analysis relative to control cells
[16] = molecular target: T1, RNA polymerase II (Mus musculus); test: Inhibition of RNA polymerase II in mouse B16-F1 migrating cells assessed as fold change in Smug1-RNA stability at 0.1 mM measured by ChIP-seq analysis relative to control cells
[17] = molecular target: T1, RNA polymerase II (Mus musculus); test: Inhibition of RNA polymerase II in mouse B16-F1 migrating cells assessed as fold change in 1810058I24Rik-RNA stability at 0.1 mM measured by ChIP-seq analysis relative to control cells
[18] = molecular target: T1, RNA polymerase II (Mus musculus); test: Inhibition of RNA polymerase II in mouse B16-F1 migrating cells assessed as fold change in Cdc40-RNA stability at 0.1 mM measured by ChIP-seq analysis relative to control cells
[19] = molecular target: T1, RNA polymerase II (Mus musculus); test: Inhibition of RNA polymerase II in mouse B16-F1 migrating cells assessed as fold change in Pmf1-RNA stability at 0.1 mM measured by ChIP-seq analysis relative to control cells
[20] = molecular target: T1, RNA polymerase II (Mus musculus); test: Inhibition of RNA polymerase II in mouse B16-F1 migrating cells assessed as fold change in Pitrm1-RNA stability at 0.1 mM measured by ChIP-seq analysis relative to control cells
[21] = molecular target: Histone-lysine N-methyltransferase EZH2 (Mus musculus) (UniProt Q61188); test: Inhibition of EZH2 in mouse B16-F1 migrating cells assessed as fold change in H3K27me3-buffered regulated Tubb2a-mRNA expression at 3 uM measured by ChIP-seq analysis relative to control cells
[22] = molecular target: Histone-lysine N-methyltransferase EZH2 (Mus musculus) (UniProt Q61188); test: Inhibition of EZH2 in mouse B16-F1 migrating cells assessed as fold change in H3K27me3-buffered regulated Bbs12-mRNA expression at 3 uM measured by ChIP-seq analysis relative to control cells
[23] = molecular target: Histone-lysine N-methyltransferase EZH2 (Mus musculus) (UniProt Q61188); test: Inhibition of EZH2 in mouse B16-F1 migrating cells assessed as fold change in H3K27me3-buffered regulated Pgm2-mRNA expression at 3 uM measured by ChIP-seq analysis relative to control cells
[24] = molecular target: Histone-lysine N-methyltransferase EZH2 (Mus musculus) (UniProt Q61188); test: Inhibition of EZH2 in mouse B16-F1 migrating cells assessed as fold change in H3K27me3-buffered regulated Agpat4-mRNA expression at 3 uM measured by ChIP-seq analysis relative to control cells
[25] = molecular target: Histone-lysine N-methyltransferase EZH2 (Mus musculus) (UniProt Q61188); test: Inhibition of EZH2 in mouse B16-F1 migrating cells assessed as fold change in H3K27me3-buffered regulated Tpi1-mRNA expression at 3 uM measured by ChIP-seq analysis relative to control cells
[26] = molecular target: Histone-lysine N-methyltransferase EZH2 (Mus musculus) (UniProt Q61188); test: Inhibition of EZH2 in mouse B16-F1 migrating cells assessed as fold change in H3K27me3-buffered regulated Tubgcp5-mRNA expression at 3 uM measured by ChIP-seq analysis relative to control cells
[27] = molecular target: Histone-lysine N-methyltransferase EZH2 (Mus musculus) (UniProt Q61188); test: Inhibition of EZH2 in mouse B16-F1 migrating cells assessed as fold change in H3K27me3-buffered regulated Kirrel-mRNA expression at 3 uM measured by ChIP-seq analysis relative to control cells
[28] = molecular target: Histone-lysine N-methyltransferase EZH2 (Mus musculus) (UniProt Q61188); test: Inhibition of EZH2 in mouse B16-F1 migrating cells assessed as fold change in H3K27me3-buffered regulated Lrrcc1-mRNA expression at 3 uM measured by ChIP-seq analysis relative to control cells
[29] = molecular target: Histone-lysine N-methyltransferase EZH2 (Mus musculus) (UniProt Q61188); test: Inhibition of EZH2 in mouse B16-F1 migrating cells assessed as fold change in H3K27me3-buffered regulated Hoxa3-mRNA expression at 3 uM measured by ChIP-seq analysis relative to control cells
[30] = molecular target: Histone-lysine N-methyltransferase EZH2 (Mus musculus) (UniProt Q61188); test: Inhibition of EZH2 in mouse B16-F1 migrating cells assessed as fold change in H3K27me3-buffered regulated Atp8b2-mRNA expression at 3 uM measured by ChIP-seq analysis relative to control cells

**Q.** For OC[C@H]1O[C@@H](n2cnc3cc(Cl)c(Cl)cc32)[C@H](O)[C@@H]1O, which log2FC [1] is on record?
**A.** 0.64

**Q.** And the log2FC [2]?
**A.** -0.4

**Q.** What about the log2FC [3] of the same compound?
**A.** -0.71

**Q.** And the log2FC [4]?
**A.** -0.6

**Q.** And the log2FC [5]?
**A.** 0.54

**Q.** What about the log2FC [6] of the same compound?
**A.** 0.52

**Q.** What about the log2FC [7] of the same compound?
**A.** -0.62

**Q.** And the log2FC [8]?
**A.** -0.71

**Q.** What about the log2FC [9] of the same compound?
**A.** 0.63

**Q.** What about the log2FC [10] of the same compound?
**A.** 0.55

**Q.** What about the log2FC [11] of the same compound?
**A.** -0.65

**Q.** And the log2FC [12]?
**A.** 0.63

**Q.** And the log2FC [13]?
**A.** -0.74

**Q.** And the log2FC [14]?
**A.** -1.17

**Q.** What about the log2FC [15] of the same compound?
**A.** -0.39

**Q.** What about the log2FC [16] of the same compound?
**A.** -0.52

**Q.** What about the log2FC [17] of the same compound?
**A.** 0.57

**Q.** What about the log2FC [18] of the same compound?
**A.** -0.65

**Q.** What about the log2FC [19] of the same compound?
**A.** 0.42

**Q.** And the log2FC [20]?
**A.** -0.5

**Q.** CCCc1cc(C)[nH]c(=O)c1CNC(=O)c1cc(-c2ccnc(N3CCN(C)CC3)c2)cc2c1cnn2C(C)C was tested. Which log2FC [21] did it give?
**A.** 0.41

**Q.** And the log2FC [22]?
**A.** -0.61

**Q.** And the log2FC [23]?
**A.** 0.41

**Q.** What about the log2FC [24] of the same compound?
**A.** 0.39

**Q.** And the log2FC [25]?
**A.** 0.39

**Q.** And the log2FC [26]?
**A.** -0.41

**Q.** And the log2FC [27]?
**A.** -0.53

**Q.** What about the log2FC [28] of the same compound?
**A.** -0.44

**Q.** And the log2FC [29]?
**A.** -0.53

**Q.** What about the log2FC [30] of the same compound?
**A.** -0.46
